No constants are given. Whether binding was seen depends on the method and setting. In cells and extracts the contact can be indirect. Here binding means that the protein was enriched with, or labelled near, the bait; the list need not be complete. A no says only that the protein was not detected with the bait. Sequences can lack the tags named with a protein.
Biological target: T1, His-ICP22^CCR (HSV-1) (UniProt P04485)
T1 sequence: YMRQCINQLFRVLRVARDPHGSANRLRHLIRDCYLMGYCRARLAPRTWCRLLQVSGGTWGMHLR
Experiment: affinity purification with mass spectrometry; His-ICP22^CCR (control His-IpgC) on nickel beads, HeLa nuclear extract diluted 1:1 with IP buffer and precleared, overnight; LC-MS/MS; at least two unique peptides in two independent experiments; only the target purified

Chains of the proteins cited; added tags and fusions are not shown.
UniProt P50750: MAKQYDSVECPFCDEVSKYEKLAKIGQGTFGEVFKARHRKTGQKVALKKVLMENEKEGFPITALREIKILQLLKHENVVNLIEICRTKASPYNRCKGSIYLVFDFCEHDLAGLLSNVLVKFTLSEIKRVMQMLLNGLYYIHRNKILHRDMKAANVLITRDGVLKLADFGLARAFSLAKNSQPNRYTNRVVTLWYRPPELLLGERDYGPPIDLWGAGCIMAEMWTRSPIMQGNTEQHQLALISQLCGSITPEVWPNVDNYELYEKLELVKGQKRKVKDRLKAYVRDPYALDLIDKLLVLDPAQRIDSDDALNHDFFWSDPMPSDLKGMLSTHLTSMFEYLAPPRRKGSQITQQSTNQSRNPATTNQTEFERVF
UniProt P21127: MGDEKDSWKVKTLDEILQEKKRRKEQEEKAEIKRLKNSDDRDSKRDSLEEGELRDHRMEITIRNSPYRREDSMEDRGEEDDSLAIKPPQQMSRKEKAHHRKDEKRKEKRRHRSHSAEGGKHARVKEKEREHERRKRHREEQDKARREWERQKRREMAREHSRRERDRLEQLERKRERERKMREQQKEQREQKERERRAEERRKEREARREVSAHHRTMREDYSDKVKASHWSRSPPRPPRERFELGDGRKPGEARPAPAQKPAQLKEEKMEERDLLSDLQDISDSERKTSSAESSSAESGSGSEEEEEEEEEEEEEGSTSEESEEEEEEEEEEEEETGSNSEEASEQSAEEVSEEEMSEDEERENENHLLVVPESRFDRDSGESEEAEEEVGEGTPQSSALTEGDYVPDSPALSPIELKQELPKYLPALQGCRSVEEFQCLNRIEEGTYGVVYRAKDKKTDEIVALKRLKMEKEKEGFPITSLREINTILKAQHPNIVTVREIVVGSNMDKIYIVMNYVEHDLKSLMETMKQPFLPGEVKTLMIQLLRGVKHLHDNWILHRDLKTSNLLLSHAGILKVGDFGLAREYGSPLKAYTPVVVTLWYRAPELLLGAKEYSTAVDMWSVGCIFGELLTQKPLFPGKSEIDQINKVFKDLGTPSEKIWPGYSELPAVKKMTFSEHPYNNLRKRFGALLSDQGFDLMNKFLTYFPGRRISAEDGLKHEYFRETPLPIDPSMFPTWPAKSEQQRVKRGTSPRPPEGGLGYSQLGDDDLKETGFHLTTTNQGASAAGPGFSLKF
UniProt Q14004: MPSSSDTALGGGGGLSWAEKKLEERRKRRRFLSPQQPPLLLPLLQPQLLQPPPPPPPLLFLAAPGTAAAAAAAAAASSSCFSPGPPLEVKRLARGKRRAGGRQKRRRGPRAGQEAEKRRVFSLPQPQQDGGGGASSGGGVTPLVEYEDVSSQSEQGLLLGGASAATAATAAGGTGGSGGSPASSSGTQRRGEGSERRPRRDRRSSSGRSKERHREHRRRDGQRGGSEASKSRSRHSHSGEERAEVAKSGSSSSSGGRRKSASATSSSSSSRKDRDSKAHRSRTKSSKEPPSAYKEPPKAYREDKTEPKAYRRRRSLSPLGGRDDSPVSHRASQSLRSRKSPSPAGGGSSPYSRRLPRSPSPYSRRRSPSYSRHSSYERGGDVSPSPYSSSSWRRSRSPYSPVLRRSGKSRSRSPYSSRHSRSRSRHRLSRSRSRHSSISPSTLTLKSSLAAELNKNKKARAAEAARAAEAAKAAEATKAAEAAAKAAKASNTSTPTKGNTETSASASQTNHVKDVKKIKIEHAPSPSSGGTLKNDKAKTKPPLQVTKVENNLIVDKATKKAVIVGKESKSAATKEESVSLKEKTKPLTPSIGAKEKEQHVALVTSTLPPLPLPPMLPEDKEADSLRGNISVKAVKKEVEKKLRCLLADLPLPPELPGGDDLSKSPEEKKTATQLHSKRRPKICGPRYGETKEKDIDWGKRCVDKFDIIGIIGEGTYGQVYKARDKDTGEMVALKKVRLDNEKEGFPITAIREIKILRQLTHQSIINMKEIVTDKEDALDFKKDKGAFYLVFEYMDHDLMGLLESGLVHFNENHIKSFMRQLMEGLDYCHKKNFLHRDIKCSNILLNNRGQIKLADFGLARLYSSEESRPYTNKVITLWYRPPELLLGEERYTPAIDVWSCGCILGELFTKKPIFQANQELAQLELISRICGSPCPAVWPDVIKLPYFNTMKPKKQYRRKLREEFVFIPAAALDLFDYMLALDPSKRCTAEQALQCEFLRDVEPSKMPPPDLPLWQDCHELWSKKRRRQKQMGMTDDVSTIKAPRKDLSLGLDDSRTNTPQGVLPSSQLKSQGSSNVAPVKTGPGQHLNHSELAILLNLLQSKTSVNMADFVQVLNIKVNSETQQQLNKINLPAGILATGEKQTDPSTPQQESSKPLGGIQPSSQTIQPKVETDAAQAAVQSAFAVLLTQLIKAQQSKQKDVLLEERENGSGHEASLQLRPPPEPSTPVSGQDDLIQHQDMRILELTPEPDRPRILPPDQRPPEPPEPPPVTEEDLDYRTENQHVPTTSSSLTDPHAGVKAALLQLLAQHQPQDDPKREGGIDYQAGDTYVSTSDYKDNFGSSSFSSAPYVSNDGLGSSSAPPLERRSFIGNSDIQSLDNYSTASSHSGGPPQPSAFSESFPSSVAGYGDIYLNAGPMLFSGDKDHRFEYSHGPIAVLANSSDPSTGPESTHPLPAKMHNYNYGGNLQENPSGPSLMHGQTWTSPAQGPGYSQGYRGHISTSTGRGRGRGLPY
UniProt Q8IZL9: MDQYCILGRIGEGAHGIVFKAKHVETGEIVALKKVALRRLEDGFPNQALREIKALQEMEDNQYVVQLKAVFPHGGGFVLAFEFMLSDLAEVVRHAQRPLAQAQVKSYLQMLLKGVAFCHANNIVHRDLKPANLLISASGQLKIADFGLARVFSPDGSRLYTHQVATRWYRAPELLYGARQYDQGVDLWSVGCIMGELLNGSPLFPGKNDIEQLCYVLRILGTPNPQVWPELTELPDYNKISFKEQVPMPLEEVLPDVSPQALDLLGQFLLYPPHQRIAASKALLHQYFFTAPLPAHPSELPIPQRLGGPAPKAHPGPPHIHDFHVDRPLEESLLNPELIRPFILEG

## CDK9 (from UniProt P50750 1-372)
  binding: binds

## CDK11B (from UniProt P21127 1-795)
  binding: binds

## CDK13 (from UniProt Q14004 1-1512)
  binding: binds

## CDK20 (from UniProt Q8IZL9 1-346)
  binding: no binding

B1: Cyclin K (protein, UniProt O75909 1-580)
chain: MKENKENSSPSVTSANLDHTKPCWYWDKKDLAHTPSQLEGLDPATEARYRREGARFIFDVGTRLGLHYDTLATGIIYFHRFYMFHSFKQFPRYVTGACCLFLAGKVEETPKKCKDIIKTARSLLNDVQFGQFGDDPKEEVMVLERILLQTIKFDLQVEHPYQFLLKYAKQLKGDKNKIQKLVQMAWTFVNDSLCTTLSLQWEPEIIAVAVMYLAGRLCKFEIQEWTSKPMYRRWWEQFVQDVPVDVLEDICHQILDLYSQGKQQMPHHTPHQLQQPPSLQPTPQVPQVQQSQPSQSSEPSQPQQKDPQQPAQQQQPAQQPKKPSPQPSSPRQVKRAVVVSPKEENKAAEPPPPKIPKIETTHPPLPPAHPPPDRKPPLAAALGEAEPPGPVDATDLPKVQIPPPAHPAPVHQPPPLPHRPPPPPPSSYMTGMSTTSSYMSGEGYQSLQSMMKTEGPSYGALPPAYGPPAHLPYHPHVYPPNPPPPPVPPPPASFPPPAIPPPTPGYPPPPPTYNPNFPPPPPRLPPTHAVPPHPPPGLGLPPASYPPPAVPPGGQPPVPPPIPPPGMPPVGGLGRAAWMR
  binding: binds

B2: Cyclin L1 (protein, UniProt Q9UK58 1-526)
chain: MASGPHSTATAAAAASSAAPSAGGSSSGTTTTTTTTTGGILIGDRLYSEVSLTIDHSLIPEERLSPTPSMQDGLDLPSETDLRILGCELIQAAGILLRLPQVAMATGQVLFHRFFYSKSFVKHSFEIVAMACINLASKIEEAPRRIRDVINVFHHLRQLRGKRTPSPLILDQNYINTKNQVIKAERRVLKELGFCVHVKHPHKIIVMYLQVLECERNQTLVQTAWNYMNDSLRTNVFVRFQPETIACACIYLAARALQIPLPTRPHWFLLFGTTEEEIQEICIETLRLYTRKKPNYELLEKEVEKRKVALQEAKLKAKGLNPDGTPALSTLGGFSPASKPSSPREVKAEEKSPISINVKTVKKEPEDRQQASKSPYNGVRKDSKRSRNSRSASRSRSRTRSRSRSHTPRRHYNNRRSRSGTYSSRSRSRSRSHSESPRRHHNHGSPHLKAKHTRDDLKSSNRHGHKRKKSRSRSQSKSRDHSDAAKKHRHERGHHRDRRERSRSFERSHKSKHHGGSRSGHGRHRR
  binding: binds

Reference: PMC8539892
